This data set can be described thus: self-splicing fitness, log relative to wild type (ln ratio); higher = more splicing; Tetrahymena group I intron in knt gene, E. coli kanamycin selection, DiMSum; sequences stand for … in CUCUCU…GGAGGGAAAAGUUAUCAGGCAUGCACCUGGUAGCUAGUCUUUAAACCAAUAGAUUGCAUCGGUUUAAAAGGCAAGACCGUCAAAUUGCGGGAAAGGGGUCAACAGCCGUUCAGUACCAAGUCUCAGGGGAAACUUUGAGAUGGCCUUGCAAAGGGUAUGGUAAUAAGCUGACGGACAUGGUCCUAACCACGCAGCCAAGUCCUAAGUCAACAGAUCUUCUGUUGAUAUGGAUGCAGUUCACAGACUAAAUGUCGGUCGGGGAAGAUGUAUUCUUCUCAUAAGAUAUAGUCGGACCUCUCCUUAAUGGGAGCUAGCGGAUGAAGUGAUGCAACACUGGAGCCGCUGGGAACUAAUUUGUAUGCGAAAGUAUAUUGAUUAGUUUUGGAGUACUCGUGGUCG
A digest of the protocol:
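Fitness was computed with DiMSum as the error-weighted combination of replicate fold changes, kanamycin versus none, each normalised to wild type. The library randomised all eight intron nucleotides of the P1ex region, with the intron placed in the knt kanamycin-resistance gene on pET-22b(+) in E. coli BL21(DE3). Six replicate transformations were grown overnight at 37°C or 30°C on LB agar with or without 25 μg/mL kanamycin, plus 100 μg/mL carbenicillin, 50 μM IPTG and 0.2% rhamnose. Pooled colonies were amplicon-sequenced on an Illumina HiSeq 2500.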

Data on 44 sequences can be found in the supplement of paper PMC7877785.

± gives the uncertainty stated by the source. Many entries were measured with a wide error.

As for CGUUAGCAAUAUUACGCUGC, the “self-splicing fitness (ln)” value (30 °C) was -2.26 ± 0.54.

Consider UUUUAGCAAUAUUACGUAGU, for which, for the setting “37 °C”, the “self-splicing fitness (ln)” value was -3.17 ± 0.52.

For CACUAGCAAUAUUACGGCCA, the “self-splicing fitness (ln)” value (37 °C) was -2.51 ± 0.54. As for CAACAGCAAUAUUACGGCUA, the “self-splicing fitness (ln)” value runs as follows: (30 °C) -1.28 ± 0.073; (37 °C) -0.553 ± 0.073.

Regarding UUAUAGCAAUAUUACGCCCG, the “self-splicing fitness (ln)” value (37 °C) was -0.424 ± 0.56.

Take UCCCAGCAAUAUUACGGGGA: the “self-splicing fitness (ln)” value is -3.53 ± 0.17 (30 °C) and -2.43 ± 0.16 (37 °C). Turning to UCGCAGCAAUAUUACGUAGC, the “self-splicing fitness (ln)” value reads like this: (30 °C) -5.04 ± 1; (37 °C) -3.74 ± 1. Turning to GCGGAGCAAUAUUACGUGAA, the “self-splicing fitness (ln)” value is -3.19 ± 0.58 (30 °C) and -2.62 ± 0.61 (37 °C).

CUUAAGCAAUAUUACGGAGC: the “self-splicing fitness (ln)” value (30 °C) was -4.21 ± 0.53. For the sequence GAGGAGCAAUAUUACGCUGC, the “self-splicing fitness (ln)” value (37 °C) was -1.99 ± 0.52. UCGUAGCAAUAUUACGCAAC: the “self-splicing fitness (ln)” value (30 °C) is -3.51 ± 0.52.

For the sequence AAUGAGCAAUAUUACGGAAC, the “self-splicing fitness (ln)” value (37 °C) is -3.26 ± 1. Take GAGGAGCAAUAUUACGGUAC: the “self-splicing fitness (ln)” value (30 °C) was -5.07 ± 0.58. As to AUCGAGCAAUAUUACGUAGA, the “self-splicing fitness (ln)” value reads like this: (30 °C) -3.09 ± 0.32; (37 °C) -2.7 ± 0.38. For the sequence UGGGAGCAAUAUUACGACGA, under “30 °C”, the “self-splicing fitness (ln)” value was -3.12 ± 1.1. Regarding GCGUAGCAAUAUUACGCGGA, under “37 °C”, the “self-splicing fitness (ln)” value is -1.33 ± 0.87. The same measure, in the same setting: the figure for GGUCAGCAAUAUUACGCCCC is -2.08 ± 1.1. On to UCCAAGCAAUAUUACGGAAC, for which the “self-splicing fitness (ln)” value (30 °C) is -5.09 ± 1. As to UAAUAGCAAUAUUACGAAUU, for the setting “30 °C”, the “self-splicing fitness (ln)” value is -3.96 ± 0.59. Consider CUACAGCAAUAUUACGGCCA, for which the “self-splicing fitness (ln)” value (30 °C) is -3 ± 0.28 and the “self-splicing fitness (ln)” value (37 °C) was -4.28 ± 0.51. On the same counts, the results for GGGUAGCAAUAUUACGAAGG are -3.25 ± 0.51 and -1.51 ± 0.84.

For the sequence UCGGAGCAAUAUUACGCUAG, the “self-splicing fitness (ln)” value (30 °C) is -1.87 ± 0.21 and the “self-splicing fitness (ln)” value (37 °C) is -2.38 ± 0.27. Consider UUAUAGCAAUAUUACGGAUC, for which the “self-splicing fitness (ln)” value (37 °C) is -2.45 ± 0.54. As for UUUUAGCAAUAUUACGAAGC, the “self-splicing fitness (ln)” value by setting is: (30 °C) -3.9 ± 1; (37 °C) -1.93 ± 0.8. Consider UCAGAGCAAUAUUACGCGAC, for which the “self-splicing fitness (ln)” value (37 °C) is -3.15 ± 0.6. Turning to CGAGAGCAAUAUUACGGUUC, the “self-splicing fitness (ln)” value by setting is: (30 °C) -2.31 ± 0.68; (37 °C) -2.76 ± 0.75. GAGAAGCAAUAUUACGGGGG: the “self-splicing fitness (ln)” value (30 °C) is -2.71 ± 0.54.

With GUUGAGCAAUAUUACGUACA, the “self-splicing fitness (ln)” value (30 °C) was -1.4 ± 1.2. UCGCAGCAAUAUUACGUACU: for the setting “30 °C”, the “self-splicing fitness (ln)” value was -4.03 ± 0.6. Take CUCCAGCAAUAUUACGAGGU: the “self-splicing fitness (ln)” value by setting is: (30 °C) -4.41 ± 0.31; (37 °C) -3.07 ± 0.24.

For the sequence GAUGAGCAAUAUUACGGCAG, the “self-splicing fitness (ln)” value (30 °C) was -3.06 ± 0.63.

In the case of CUUGAGCAAUAUUACGGCCG, the “self-splicing fitness (ln)” value (30 °C) was -3.37 ± 0.56.

For the sequence UUACAGCAAUAUUACGGAAG, the “self-splicing fitness (ln)” value (30 °C) was -3 ± 0.13 and the “self-splicing fitness (ln)” value (37 °C) is -2.05 ± 0.14.

UCUGAGCAAUAUUACGCCCA: the “self-splicing fitness (ln)” value by setting is: (30 °C) -0.868 ± 1.4; (37 °C) -0.681 ± 1.4. For the sequence UUAUAGCAAUAUUACGCCCC, for the setting “30 °C”, the “self-splicing fitness (ln)” value was -1.52 ± 0.87. Regarding CUUGAGCAAUAUUACGCCUG, the “self-splicing fitness (ln)” value (30 °C) was -3.62 ± 0.53. With CUGCAGCAAUAUUACGCUGA, the “self-splicing fitness (ln)” value (37 °C) was -3.49 ± 0.73. On to GAUUAGCAAUAUUACGAUGU, for which the “self-splicing fitness (ln)” value runs as follows: (30 °C) -0.783 ± 0.074; (37 °C) -0.611 ± 0.1. With AGCGAGCAAUAUUACGUCCG, the “self-splicing fitness (ln)” value is -4.04 ± 1.1 (30 °C) and -0.595 ± 1.4 (37 °C). GUCGAGCAAUAUUACGCAAA: for the setting “37 °C”, the “self-splicing fitness (ln)” value is -1.81 ± 0.53. As for AAAGAGCAAUAUUACGCGGC, the “self-splicing fitness (ln)” value (30 °C) was -4.18 ± 0.72. Regarding GCGGAGCAAUAUUACGUAUA, the “self-splicing fitness (ln)” value (30 °C) is -3.88 ± 1.1. Consider GGUCAGCAAUAUUACGCGAC, for which the “self-splicing fitness (ln)” value (37 °C) is 0.694 ± 0.65. CGGUAGCAAUAUUACGGAUA: under “30 °C”, the “self-splicing fitness (ln)” value is -5.56 ± 1.
